Literature values in US20070249519A1, “METHODS FOR THE UPREGULATION OF GLUT4 VIA MODULATION OF PPAR DELTA IN ADIPOSE TISSUE AND FOR THE TREATMENT OF DISEASE” (KALYPSYS, INC., priority 2006, published 2007).
At least one structure is not confirmed: it was looked up by name or label, or the drawing left a doubt.

Experiments:
GLUT4 [1] = conditions: obese rats; cited from earlier work
GLUT4 [2] = conditions: cited from earlier work
GLUT4 translocation = conditions: ZDF ob/ob and DIO C57BL/6 mice; cited from earlier work

Row | Compound | HDL-C (GLUT4 [1]) | expression of GLUT4 in skeletal muscle (GLUT4 [1]) | lipid content in the liver and muscle (GLUT4 [1]) | serum insulin and triglycerides (GLUT4 [1]) | expression of GLUT4 in cultured human muscle cell myotubes (GLUT4 [2]) | insulin sensitivity and GLUT4 translocation in adipose and muscular tissue (GLUT4 translocation)
1 | CCc1ccc(CCOc2ccc(CC3SC(=O)NC3=O)cc2)nc1 (stereo not drawn) [pioglitazone] | elevation | elevated expression of GLUT4 | Lowered lipid content | reductions | – | –
2 | CN(CCOc1ccc(CC2SC(=O)NC2=O)cc1)c1ccccn1 (stereo not drawn) [rosiglitazone] | – | – | – | – | increased expression of GLUT4 | enhanced insulin sensitivity and GLUT4 translocation
